Hit rate of the full screen: of about 580,000 compounds, about 6,100 (1.1%) were called active. This list was built around the results that the source calls inconclusive (neither active nor inactive); the mix of calls is not that of the screen. Calls follow the shape of the dose curve; as a rule, active = well fitted inhibition curve with a large enough effect; inconclusive = small, poorly fitted or top-dose-only effect, or another doubt; inactive = no such curve, though single readings can be large or run the other way. Where the call is inconclusive, the potency comes from a doubtful curve fit.
molecular target: Polyunsaturated fatty acid lipoxygenase ALOX12 (Homo sapiens) (UniProt P18054); test: Primary qHTS assay for inhibitors of human arachidonate 12S-lipoxygenase (ALOX12): Round 2; conditions: purified 12hLO, xylenol orange hydroperoxide absorbance; series mostly up to 108 µM
Summary of the method: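 Purified human 12hLO (150 nM final) in 25 mM Hepes, 0.01% Triton X-100, pH 7.0 was preincubated 15 min at room temperature with compound. Then 40 uM arachidonic acid was added, 30 min. Hydroperoxide was read by Fe-XO absorbance ratio 573/405 nm.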
Potency is read from the fitted curve at half-maximal effect.

Amino acid sequences for entries named in this document (tags omitted). A change or cut given only in a name is not applied to a line headed by its entry.
UniProt P18054: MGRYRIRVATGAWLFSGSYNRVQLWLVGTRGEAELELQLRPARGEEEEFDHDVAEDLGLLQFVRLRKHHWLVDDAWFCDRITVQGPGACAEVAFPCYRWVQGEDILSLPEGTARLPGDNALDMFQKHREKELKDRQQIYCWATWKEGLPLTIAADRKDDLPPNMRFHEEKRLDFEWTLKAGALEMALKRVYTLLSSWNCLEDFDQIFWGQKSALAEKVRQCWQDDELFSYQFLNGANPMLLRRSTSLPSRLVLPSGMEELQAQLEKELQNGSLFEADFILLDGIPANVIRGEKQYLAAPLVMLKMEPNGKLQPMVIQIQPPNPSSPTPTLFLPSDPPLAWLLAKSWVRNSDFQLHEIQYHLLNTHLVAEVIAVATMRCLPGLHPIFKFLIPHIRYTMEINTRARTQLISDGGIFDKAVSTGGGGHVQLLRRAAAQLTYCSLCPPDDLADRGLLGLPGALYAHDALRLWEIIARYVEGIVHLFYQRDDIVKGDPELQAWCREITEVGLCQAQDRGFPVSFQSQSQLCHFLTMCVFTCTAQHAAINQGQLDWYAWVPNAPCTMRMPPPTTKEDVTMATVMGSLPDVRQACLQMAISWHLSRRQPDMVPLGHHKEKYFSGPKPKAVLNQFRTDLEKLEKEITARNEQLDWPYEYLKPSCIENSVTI

SMILES | Potency
O=C(CSc1nc2ccccc2c(=O)[nH]1)c1ccccc1 | inconclusive: 39.8 µM [inhibitor, single point]
Clc1cccc(-n2ncc3c(N4CCN(Cc5ccccc5)CC4)ncnc32)c1 | inconclusive: 141 µM [inhibitor, partial curve, poor fit]
CC1=C(C(=O)OC2CCCC2)C(c2coc3ccc(C)cc3c2=O)C2=C(CCCC2=O)N1 (configuration not stated) | inconclusive: 39.8 µM [inhibitor, partial curve, poor fit]
CCOC(=O)c1cc2occc2n1CCCN1C(=O)c2ccccc2C1=O | inconclusive: 100 µM [inhibitor, single point]
CN(C)c1ccc(-c2csc(C(O)c3ccccc3)n2)cc1 (configuration not stated) | inconclusive: 100 µM [inhibitor, single point]
O=S(=O)(c1ccc2ccccc2c1)N1CCN(C(=S)Nc2ccc(F)c(Cl)c2)CC1 | inconclusive: 17.8 µM [inhibitor, partial curve]
Cc1cc(C)n(-c2cc(C)c(C)cc2Br)n1 | inconclusive: 50.1 µM [inhibitor, partial curve, poor fit]
Cc1ccc(-n2c(-c3ccco3)nc3nc4ccccc4nc32)cc1 | inconclusive: 39.8 µM [inhibitor, partial curve, poor fit]
C=CCOc1cccc(C2C(C(=O)c3ccc(C)o3)=C(O)C(=O)N2CCN(C)C)c1 (configuration not stated) | inconclusive: 7.94 µM [inhibitor, full curve, poor fit]
O=C(Nc1cc2c(cc1Cl)OCCO2)c1ccco1 | inconclusive: 39.8 µM [inhibitor, single point]
COCCN1C(=O)N[C@@H](c2ccccc2)[C@@H](C(=O)OC)[C@H]1C | inconclusive: 0.316 µM [inhibitor, full curve, poor fit]
Cc1nccc(-c2cccc(NC(=O)c3cc[n+]([O-])cc3)c2)n1 | inactive
COc1ccc(OC)c(C(=O)CC2(O)C(=O)N(C)c3ccc(Br)cc32)c1 (configuration not stated) | inactive
COc1ccc(-c2cc(C[C@H]3CNCC[C@H]3CC(=O)N3CCC(n4c(=O)[nH]c5ccccc54)CC3)no2)cc1 | inconclusive: 10 µM [inhibitor, full curve]
Cc1nc(NCCN(C)C)c(C#N)c2c1CCCC2 | inconclusive: 31.6 µM [inhibitor, partial curve, poor fit]
COc1ccc(C(CCN2CCN(c3ccccc3)CC2)c2c(OC)cc(OC)c3c(-c4ccccc4)cc(=O)oc23)cc1 (configuration not stated) | inactive
COC(=O)c1nc2n(n1)C(c1ccc(C)cc1)C(C(=O)Nc1ccc(Cl)cc1)=C(C)N2 (configuration not stated) | inconclusive: 89.1 µM [inhibitor, single point]

Sorted by count of non-hydrogen atoms (rising): some entries from above.
SMILES | Potency
Cc1cc(C)n(-c2cc(C)c(C)cc2Br)n1 | inconclusive: 50.1 µM [inhibitor, partial curve, poor fit]
O=S(=O)(c1ccc2ccccc2c1)N1CCN(C(=S)Nc2ccc(F)c(Cl)c2)CC1 | inconclusive: 17.8 µM [inhibitor, partial curve]
COc1ccc(C(CCN2CCN(c3ccccc3)CC2)c2c(OC)cc(OC)c3c(-c4ccccc4)cc(=O)oc23)cc1 (configuration not stated) | inactive

From PubChem BioAssay AID1671190 (National Center for Advancing Translational Sciences (NCATS), 2021)
